Paper PMC4159583, “Evaluation of the Interaction between Phosphohistidine Analogues and Phosphotyrosine Binding Domains” (Chembiochem, 2014)
No constants are given. Whether binding was seen depends on the method and setting. For some assays here: Where a sequence is shown, tags or fusion partners need not be part of it.

Protein sequences, listed by entry. Tags and fused reporters are not part of them. Residues count along the entry.
UniProt P62993, residues 60-152: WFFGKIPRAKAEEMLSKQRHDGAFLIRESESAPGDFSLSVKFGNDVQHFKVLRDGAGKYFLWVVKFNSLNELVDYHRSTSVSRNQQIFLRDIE

Tests used:
[1] = target: monomeric His6-(Grb2-SH2), P62993; assay: fluorescence polarisation; competition fluorescence anisotropy; displacement of fluorescein peptide 17 from His6-(Grb2-SH2) by unlabelled peptides; both purified; settings: remark: other sources report otherwise
[2] = target: monomeric His6-(Grb2-SH2) (UniProt P62993); assay: as above

| binding [1] | binding [2] | Binder |
| --- | --- | --- |
| no binding | – | SYVNVQ (here or on the partner: N-terminal acetyl (AcHN); C-terminal amide (NH2)) [peptide 18, AcHN-Ser-Tyr-Val-Asn-Val-Gln-NH2] |
| – | no binding | SHVNVQ (N-terminal acetyl (AcHN); C-terminal amide (NH2)) [peptide 19, AcHN-Ser-His-Val-Asn-Val-Gln-NH2] |
